The record followed here is US20260035355A1, “COMPOUND, PHARMACEUTICAL COMPOSITION COMPRISING SAME, AND USE THEREOF” (SHENZHEN ZHONGGE BIOLOGICAL TECHNOLOGY CO., LTD., priority 2022, published 2026).

A word on the Papp A→B: it is how fast a substance crosses the layer from the apical side. High values mean fast passage, low ones slow passage. As a reminder, the Papp B→A is the apparent permeability from the basolateral to the apical side of a cell layer.

A short description of this data set: Evaluation of cell membrane permeability. Type of data set: in vitro ADME. The note with it: transport buffer (HBSS+BSA), 37° C. The protocol:
The test compounds were diluted from 10 mM stock solutions to a concentration of 10 μM using the transport buffer (HBSS+BSA) and applied to the apical or basolateral side of the cell monolayer. After the incubation at 37° C., 5% CO2 and 95% relative humidity for 120 minutes, the permeability of the test compounds in the A to B direction or the B to A direction was dually determined. In addition, the efflux ratio (Papp B to A/Papp A to B) of each compound was determined. The test substances and reference substances were quantitatively analyzed by the LC-MS/MS method based on the analyte/IS peak area ratio.

Turning to `CC(C)NCC(O)COc1ccc(CC(N)=O)cc1` (centres unmarked) [Atenolol], the Papp A→B at 120 min, 10 μM is 0.41 ×10⁻⁶ cm/s and the Papp B→A at 120 min, 10 μM was 0.61 ×10⁻⁶ cm/s.
